PubChem BioAssay AID1347076 (National Center for Advancing Translational Sciences (NCATS), 2019)
Several values for one entry are separate records, joined by “and”; a condition that tells them apart may be missing. Equal values may be shown once. Screen size: about 400,000 compounds; about 13,000 (3.2%) were called active. The shares of active, inactive and inconclusive entries below differ from those in the screen. Calls follow the shape of the dose curve; as a rule, active = well fitted cell-killing curve with a large enough effect; inconclusive = small, poorly fitted or top-dose-only effect, or effect the other way; inactive = flat fitted curve, though single readings scatter. Potencies beside an inconclusive call are fits to weak or partial responses and may not hold up.

Experiment: qHTS assay for MDR1-selective chemotherapeutics: Primary screen using the drug-selected MDR subline cells KB-V1; also: nearly all actives have a fitted effect of over 60% in size
Conditions: KB-V1 MDR cells viability, CellTiter-Glo, 72 h; activity change, negative = cytotoxicity: at 46.1 µM (top of the series)
Procedure, shortened: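 Potencies derive from concentration-effect curves fitted to normalized luminescence (CellTiter-Glo) of KB-V1 cells treated for 72 h at 37 degrees C in phenol-red-free DMEM containing 10% FBS.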
% is scaled to controls: 0 for no effect and ±100 for the full control effect; potency is read from the fitted curve at half-maximal effect.

| Structure (SMILES) | Potency | activity change, negative = cytotoxicity |
| --- | --- | --- |
| CCCCCn1nnnc1C1c2ccccc2C(=O)N1Cc1ccco1 (centres undefined) | inconclusive: 6.51 µM [cytotoxic, partial curve] |  |
| C#CC(CO)N(CCN(Cc1ccccc1)C(C#C)CO)Cc1ccccc1 (centres undefined) | inconclusive: 20.6 µM [cytotoxic, partial curve, poor fit] |  |
| C[C@H](CO)N1C[C@H](C)[C@@H](CN(C)S(=O)(=O)c2cccs2)Oc2c(NS(=O)(=O)c3cn(C)cn3)cccc2C1=O | inconclusive: 11.6 µM [rising, single point] |  |
| CCc1ccccc1NC1c2ccccc2C(=O)N1Cc1ccco1 (centres undefined) | inconclusive: 32.6 µM [cytotoxic, single point] |  |
| COc1cc([N+](=O)[O-])ccc1NC(=O)CC1SC(=Nc2ccc(F)cc2)N(CCC2=CCCCC2)C1=O (centres undefined) | inconclusive: 3.26 µM [cytotoxic, partial curve, poor fit] |  |
| O=C(N/N=C/C1CC=CCC1)c1cc(-c2cccnc2)nc2ccccc12 (centres undefined) |  | inactive: -1.55% |
| COc1cc(OC)cc(-n2nnnc2SCC(=O)Nc2ccc(C(C)=O)cc2)c1 |  | inactive: 24.2% |
| Cc1ccc(CN(C(=O)Cn2nnc3ccccc32)C(C(=O)NCc2ccco2)c2cccs2)cc1 (centres undefined) | inconclusive: 7.31 µM [cytotoxic, partial curve] |  |
| O=C(CSc1n[nH]c(-c2ccncc2)n1)Nc1ccc(Cl)c(C(=O)O)c1 |  | inactive: 10.8% |
| COC(=O)c1ccccc1NC(=O)CSCC(=O)Nc1ccccc1OC | active: 9.2 µM |  |
| CC(C)CC1Nc2ccc(C(=O)NCCCN3CCOCC3)cc2NC1=O (centres undefined) |  | inactive: 17.8% |
| O=C(CCC1CCCC1)N1CCN(S(=O)(=O)Cc2ccccc2)CC1 | inconclusive: 16.4 µM [cytotoxic, single point] |  |
| c1coc(Cn2c(SCc3nc4ccccc4[nH]3)nnc2-c2cnccn2)c1 | inconclusive: 9.2 µM [cytotoxic, partial curve] |  |
| C#CCCOC(=O)N1C2=NC(C(=O)OC)=C(C(=O)OC)[C@@H]3Nc4ccccc4[C@]23C[C@H]1C(=O)OC | inconclusive: 18.4 µM [rising, single point] |  |
| COC(=O)c1scc(-c2ccc(C)cc2)c1S(=O)(=O)N1CCN(c2ccccc2)CC1 |  | inactive: 1.29% |
| COc1cccc(-c2nc(C(=O)NCC3CCCO3)cc3c2[nH]c2ccccc23)c1 (centres undefined) | inconclusive: 23.1 µM [cytotoxic, single point] |  |
| COc1ccc(S(=O)(=O)N2CCN(Cc3ccc(Cl)cc3)CC2)cc1 | inconclusive: 14.6 µM [cytotoxic, partial curve] |  |
| Cc1c(C(=O)N2CCN(c3ccccc3)CC2)oc2c(F)cccc12 | inconclusive: 9.2 µM [cytotoxic, partial curve] |  |
| COc1ccc(/C=C2\SC(N3CCc4ccccc4C3)=NC2=O)cc1 | inconclusive: 18.4 µM [cytotoxic, single point] |  |
| COc1ccc(NC(=S)/N=C(\N)Nc2nc(C)c3ccc(C)cc3n2)cc1 |  | inactive: 0% |
| CCCN(CCC)c1nc(N)c(C#N)c(CC#N)c1C#N |  | inactive: -7.84% |
| Cc1ccc(OCC2Cn3c(nc4c3c(=O)[nH]c(=O)n4C)O2)cc1 (centres undefined) | inconclusive: 18.4 µM [cytotoxic, partial curve] |  |
| O=C(CSc1ccc([N+](=O)[O-])cn1)Nc1ccccc1N1CCOCC1 | inconclusive: 16.4 µM [cytotoxic, single point] |  |

4 entries from above, field by field:
C#CC(CO)N(CCN(Cc1ccccc1)C(C#C)CO)Cc1ccccc1 (centres undefined)
  Potency: inconclusive: 20.6 µM [cytotoxic, partial curve, poor fit]
C[C@H](CO)N1C[C@H](C)[C@@H](CN(C)S(=O)(=O)c2cccs2)Oc2c(NS(=O)(=O)c3cn(C)cn3)cccc2C1=O
  Potency: inconclusive: 11.6 µM [rising, single point]
CCc1ccccc1NC1c2ccccc2C(=O)N1Cc1ccco1 (centres undefined)
  Potency: inconclusive: 32.6 µM [cytotoxic, single point]
COc1cc([N+](=O)[O-])ccc1NC(=O)CC1SC(=Nc2ccc(F)cc2)N(CCC2=CCCCC2)C1=O (centres undefined)
  Potency: inconclusive: 3.26 µM [cytotoxic, partial curve, poor fit]

Additional compounds follow:

| Structure (SMILES) | Potency | activity change, negative = cytotoxicity |
| --- | --- | --- |
| CCC(Sc1nc2ccccc2s1)C(=O)Nc1nnc(C)s1 (centres undefined) | active: 16.4 µM |  |
| CC(C)CC(N)c1csc(Nc2ccc(C(=O)c3ccccc3)cc2)n1 (centres undefined) | inconclusive: 18.4 µM [cytotoxic, single point] |  |
| CCn1c(SCC(=O)c2ccccc2)nnc1-c1cc2cc(Br)ccc2o1 | active: 18.4 µM |  |
| CC(C)CC(NC(=O)C1CCC(C)CC1)C(=O)Nc1ccccc1F (centres undefined) | inconclusive: 20.6 µM [cytotoxic, single point] |  |
| CCCc1c(O)c2ccccc2n(-c2ccccc2)c1=O | inconclusive: 29.1 µM [rising, partial curve, poor fit] |  |
| Cc1ccccc1C(=O)NC(=S)Nc1sc2c(c1C#N)CCC(C)C2 (centres undefined) |  | inactive: 11.1% |
| COc1ccccc1N1CCN(C(=O)/C=C/c2cccs2)CC1 | inconclusive: 10.3 µM [cytotoxic, partial curve] |  |
| COc1ccc(OC)c(C2=NOC(C(=O)N3CCN(c4ccccc4)CC3)C2)c1 (centres undefined) | inconclusive: 16.4 µM [cytotoxic, single point] |  |
| Cc1cc(Cl)ccc1OCC(=O)Nc1ccccc1N1CCOCC1 | active: 14.6 µM |  |
| Cc1c(NC(=S)N/N=C/C=C/c2ccccc2)c(=O)n(-c2ccccc2)n1C | inconclusive: 29.1 µM [rising, single point] |  |
| CN(Cc1ccccc1)C(=O)c1c[nH]c2ccc(S(=O)(=O)N3CCOCC3)cc2c1=O | inconclusive: 20.6 µM [rising, single point] |  |
| COc1ccc(S(=O)(=O)Nc2ccc3oc4c(c3c2)CCCC4)cc1 | inconclusive: 25.9 µM [cytotoxic, single point] |  |
| Cc1ccc(C(C)C)c(OCCSc2nc3ccccc3n2CC(O)CO)c1 (centres undefined) |  | inactive: -2.44% |
| CN(C)S(=O)(=O)c1cccc(NC(=S)N/N=C/C(c2ccccc2)c2ccccc2)c1 | active: 20.6 µM |  |
| Cc1cn(S(=O)(=O)c2cc(Br)ccc2Br)cn1 | inconclusive: 29.1 µM [cytotoxic, single point] |  |
| CCOc1ccc(NC(=O)C2CC(=O)N(c3ccccc3F)C2)cc1 (centres undefined) | inconclusive: 4.61 µM [cytotoxic, full curve] |  |
| CC(=O)C[C@@H]1SC[C@H](c2ccccc2)N1S(=O)(=O)c1ccc(C)cc1 | inconclusive: 13 µM [cytotoxic, partial curve] |  |
| CCCCCCCCN1C(=O)[C@H](CC(=O)N2CCN(C(=O)OCC)CC2)C[C@@]2(C(=O)OC)CCCCC=C12 | inconclusive: 9.2 µM [cytotoxic, partial curve] |  |
| Cc1sc2ncnc(SCC(=O)NNC(=O)COc3cccc4ccccc34)c2c1C | inconclusive: 23.1 µM [cytotoxic, single point] |  |
| COc1ccc(-n2c(N3CCN(C)CC3)nc3sc4c(c3c2=O)CCCCC4)cc1 | inconclusive: 23.1 µM [cytotoxic, single point] |  |
| CC(=O)c1cc2c(cc1NC(=O)Cc1ccsc1)OCO2 |  | inactive: -6.74% |
| CCOc1ccc(NS(=O)(=O)c2ccc3c(c2)oc(=O)n3C)cc1 | active: 14.6 µM |  |
| CCOC(=O)c1cnc(SCc2nc(N)nc(Nc3ccc(F)cc3)n2)nc1N | inconclusive: 18.4 µM [cytotoxic, partial curve] |  |

| Structure (SMILES) | Potency | activity change, negative = cytotoxicity |
| --- | --- | --- |
| C/C(=N\n1c(C)nc2ccccc2c1=O)c1ccc(C)o1 |  | inactive: -8.61% |
| Nc1cccc2c1C(=O)N(C(=O)c1ccco1)C2=O |  | inactive: 13.9% |
| COc1ccc(-c2nc(CS(=O)CC(=O)N3CCOCC3)c(C)o2)cc1OC (centres undefined) |  | inactive: -23.1% |
| COc1cc2c(-c3ccc4[nH]ccc4c3)c(-c3ccc(C#N)cc3)oc(=O)c2cc1OC |  | inactive: -14.1% |
| O=CNc1cc(-c2ccccc2)cn2c(-c3ccc(F)c(Cl)c3)cnc12 | inconclusive: 20.6 µM [cytotoxic, single point] |  |
| CC(=O)Oc1ccc(N(c2ccccc2)S(=O)(=O)c2ccc(C)cc2)cc1 | active: 14.6 µM |  |
| C[N+]1(CC(=O)c2ccc(Cl)cc2)CCOCC1 |  | inactive: 2.21% |
| COc1ccc(CC(O)CC2c3c(cc4c(c3OC)OCO4)CCN2C)cc1 (centres undefined) |  | inactive: -14.8% |
| O=C(Nc1ccc(F)cc1)Nc1cc(OCC(F)(F)F)cc(OCC(F)(F)F)c1 | inconclusive: 29.1 µM [cytotoxic, single point] |  |
| O=C(O)c1cccc(N/N=C/C2=C(Cl)c3cc(Cl)ccc3SC2)c1 | inconclusive: 29.1 µM [rising, single point] |  |
| COC(=O)C1CC(=O)N(c2ccc(C)cc2)C1 (centres undefined) | inconclusive: 29.1 µM [rising, single point] |  |
| O=c1cc(-c2ccncc2)oc2ccccc12 | inconclusive: 9.2 µM [cytotoxic, partial curve, poor fit] |  |
| Cc1onc(-c2ccccc2Cl)c1C(=O)OCC(=O)c1ccccc1 | inconclusive: 23.1 µM [cytotoxic, single point] |  |
| CC(C)C[C@H](CO)N(Cc1ccccc1)S(=O)(=O)N(Cc1ccccc1)[C@@H](CO)CC(C)C | active: 20.6 µM and inconclusive: 29.1 µM [cytotoxic, single point] |  |
| CC(C)=C1C2C=CC1C1C(=O)N(c3ccc4c(c3)OCO4)C(=O)C21 (centres undefined) | inconclusive: 29.1 µM [cytotoxic, single point] |  |
| Cc1cc2nc(-c3ccc(NC(=O)c4cc5ccccc5o4)cc3)oc2cc1C |  | inactive: 19% |
| CC(=O)c1sc(NC(=O)c2ccccc2F)nc1-c1ccccc1 | inconclusive: 9.2 µM [cytotoxic, partial curve, poor fit] |  |
| CCOC(=O)c1c(N2C(=O)C3C4C=CC(O4)C3C2=O)sc2c1CCCC2 (centres undefined) | inconclusive: 16.4 µM [cytotoxic, partial curve] |  |
| Cc1nn(-c2ccccc2)c2nc(Cl)c(C(=O)O)cc12 |  | inactive: 11.1% |
| C=CC[C@@H](CC(=O)N[C@@H](CO)Cc1ccccc1)C(=O)N[C@H](COC(=O)[C@H](CC=C)CC(=O)OC(C)(C)C)Cc1c[nH]c2ccccc12 | inconclusive: 29.1 µM [cytotoxic, single point] |  |
| Cc1ccc(NS(=O)(=O)c2ccc3oc(=O)ccc3c2)cc1Cl | inconclusive: 29.1 µM [cytotoxic, single point] |  |
| CCN1/C(=C2/SC(=S)N(NC(C)=O)C2=O)Sc2ccc(Cl)cc21 |  | inactive: -25.5% |
| Cc1cc(Nc2ccc(C(=O)O)c(O)c2)n2ncnc2n1 | inconclusive: 29.1 µM [rising, single point] |  |
